Experimental data: US6368809B1, “E2F ubiquitination domain, and assays for inhibitors and enhancers of E2F ubiquitination” (Prolifix Limited, priority 1996, dated 2002)

System: C33A cells
Test: Pulse-chase ([35S]-methionine-cysteine) protein half-life in transfected C33A cells
Assay type: cell-based, human
Conditions: immunoprecipitation with 12CA5

Row | Substance | half-life, wild-type E2F-4 versus ΔE2F-4 [h]
1 | E2F-4: human E2F-4 transcription factor, HA-tagged, expressed from pRc-HA-E2F-4 | 2
2 | ΔE2F-4: carboxy-terminal deletion mutant of E2F-4 encoding amino acids 1-301, lacking the p107 interaction surface | 18
